Experimental data from paper PMC12408853.
No constants are given. Whether binding was seen depends on the method and setting. Binding seen in cells or lysates may run through a third protein. Some results given as binding are weak or reduced against the parent protein; the word gives no strength.

Sequences of proteins named here, by UniProt entry; tags and fusion partners are left off.
UniProt Q04206: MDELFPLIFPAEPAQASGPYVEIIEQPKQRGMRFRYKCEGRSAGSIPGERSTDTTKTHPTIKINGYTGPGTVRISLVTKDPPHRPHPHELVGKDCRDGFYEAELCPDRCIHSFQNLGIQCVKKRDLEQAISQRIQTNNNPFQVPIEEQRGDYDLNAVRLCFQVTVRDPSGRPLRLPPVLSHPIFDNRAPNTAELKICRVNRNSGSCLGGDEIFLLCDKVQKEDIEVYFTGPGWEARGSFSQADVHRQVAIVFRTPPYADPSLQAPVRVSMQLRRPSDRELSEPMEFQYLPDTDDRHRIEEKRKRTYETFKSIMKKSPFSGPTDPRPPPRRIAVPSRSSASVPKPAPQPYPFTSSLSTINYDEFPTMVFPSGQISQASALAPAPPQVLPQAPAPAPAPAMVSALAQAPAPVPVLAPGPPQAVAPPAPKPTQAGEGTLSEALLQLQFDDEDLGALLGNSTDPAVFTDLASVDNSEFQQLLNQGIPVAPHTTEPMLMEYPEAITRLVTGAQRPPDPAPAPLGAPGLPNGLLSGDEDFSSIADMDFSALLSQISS

Target: NF-κB p65 (human (endogenous in RPMI8226 and OPM2)) (UniProt Q04206)
Assay: co-IP; endogenous proteins in RPMI8226 and OPM2 lysates (Western and IP lysis buffer, 1 mM PMSF); anti-p65 antibody 6 h at 4°C, Protein A/G magnetic beads overnight at 4°C; rabbit IgG control; washed three times with 0.05% PBST; Western blot

B1: Estrogen-related receptor gamma (ERRγ) (protein, UniProt P62508 1-458)
chain: MDSVELCLPESFSLHYEEELLCRMSNKDRHIDSSCSSFIKTEPSSPASLTDSVNHHSPGGSSDASGSYSSTMNGHQNGLDSPPLYPSAPILGGSGPVRKLYDDCSSTIVEDPQTKCEYMLNSMPKRLCLVCGDIASGYHYGVASCEACKAFFKRTIQGNIEYSCPATNECEITKRRRKSCQACRFMKCLKVGMLKEGVRLDRVRGGRQKYKRRIDAENSPYLNPQLVQPAKKPYNKIVSHLLVAEPEKIYAMPDPTVPDSDIKALTTLCDLADRELVVIIGWAKHIPGFSTLSLADQMSLLQSAWMEILILGVVYRSLSFEDELVYADDYIMDEDQSKLAGLLDLNNAILQLVKKYKSMKLEKEEFVTLKAIALANSDSMHIEDVEAVQKLQDVLHEALQDYEAGQHMEDPRRAGKMLMTLPLLRQTSTKAVQHFYNIKLEGKVPMHKLFLEMLEAKV
B1 was tested, and the binding was “binds”.
